The target of assay [1] is Sen1-TAP (wild-type Sen1 fused to a TAP tag) (S. cerevisiae) (UniProt Q00416). In words: affinity purification with mass spectrometry; Sen1-TAP or Sen1-3–TAP as bait; yeast lysates; untagged control.
The target in assay [2] is T1, Rpc160-HTP (largest subunit of RNAPIII, C-terminally His6–TEV–Protein A tagged) (S. cerevisiae) (UniProt P04051).
T1 sequence: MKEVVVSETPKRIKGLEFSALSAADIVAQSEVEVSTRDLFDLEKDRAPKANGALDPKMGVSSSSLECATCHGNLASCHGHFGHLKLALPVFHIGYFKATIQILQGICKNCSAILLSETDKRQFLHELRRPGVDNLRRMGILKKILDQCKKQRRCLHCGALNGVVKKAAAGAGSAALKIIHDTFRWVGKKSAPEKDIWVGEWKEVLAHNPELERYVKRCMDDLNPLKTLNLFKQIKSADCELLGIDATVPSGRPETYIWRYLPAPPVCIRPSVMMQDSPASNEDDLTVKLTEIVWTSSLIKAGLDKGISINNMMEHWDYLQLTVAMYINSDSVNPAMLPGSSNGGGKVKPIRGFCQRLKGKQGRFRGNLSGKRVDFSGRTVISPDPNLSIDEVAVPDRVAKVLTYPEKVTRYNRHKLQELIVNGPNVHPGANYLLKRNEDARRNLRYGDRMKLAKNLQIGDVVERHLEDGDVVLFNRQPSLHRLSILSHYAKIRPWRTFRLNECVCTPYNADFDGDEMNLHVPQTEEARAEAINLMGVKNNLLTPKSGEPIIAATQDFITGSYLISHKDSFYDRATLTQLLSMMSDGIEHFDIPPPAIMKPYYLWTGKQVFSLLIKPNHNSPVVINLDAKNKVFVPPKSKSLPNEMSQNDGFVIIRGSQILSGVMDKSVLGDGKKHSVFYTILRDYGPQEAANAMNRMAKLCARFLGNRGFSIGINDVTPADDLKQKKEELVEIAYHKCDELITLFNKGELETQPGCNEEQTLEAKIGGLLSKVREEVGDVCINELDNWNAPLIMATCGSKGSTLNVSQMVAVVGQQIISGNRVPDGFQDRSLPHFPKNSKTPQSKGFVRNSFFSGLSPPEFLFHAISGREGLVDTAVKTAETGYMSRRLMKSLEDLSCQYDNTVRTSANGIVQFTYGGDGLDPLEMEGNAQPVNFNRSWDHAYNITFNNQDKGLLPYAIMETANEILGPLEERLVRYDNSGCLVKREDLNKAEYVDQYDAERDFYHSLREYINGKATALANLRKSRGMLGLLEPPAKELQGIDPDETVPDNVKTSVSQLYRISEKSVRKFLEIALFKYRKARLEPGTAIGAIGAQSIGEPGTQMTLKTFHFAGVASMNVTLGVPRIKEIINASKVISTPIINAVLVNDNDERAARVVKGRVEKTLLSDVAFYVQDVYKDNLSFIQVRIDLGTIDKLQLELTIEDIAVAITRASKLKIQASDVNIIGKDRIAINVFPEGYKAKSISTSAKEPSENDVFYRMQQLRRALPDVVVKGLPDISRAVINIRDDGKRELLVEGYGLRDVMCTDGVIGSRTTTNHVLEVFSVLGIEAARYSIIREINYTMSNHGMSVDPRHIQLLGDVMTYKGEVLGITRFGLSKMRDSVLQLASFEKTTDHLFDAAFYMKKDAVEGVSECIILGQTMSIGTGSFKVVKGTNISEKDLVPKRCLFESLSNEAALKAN
In words: affinity purification with mass spectrometry; Rpc160-HTP as bait in WT (SEN1) or sen1-3 cells; IgG-coupled Dynabeads, 2 hours at 4°C; no RNase A treatment; label-free quantitative MS against an untagged control.

Assay [3] has as its target T2, TAP-NTD (isolated N-terminal domain of Sen1, TAP-tagged, expressed from pGAL1) (S. cerevisiae) (UniProt Q00416).
T2 sequence: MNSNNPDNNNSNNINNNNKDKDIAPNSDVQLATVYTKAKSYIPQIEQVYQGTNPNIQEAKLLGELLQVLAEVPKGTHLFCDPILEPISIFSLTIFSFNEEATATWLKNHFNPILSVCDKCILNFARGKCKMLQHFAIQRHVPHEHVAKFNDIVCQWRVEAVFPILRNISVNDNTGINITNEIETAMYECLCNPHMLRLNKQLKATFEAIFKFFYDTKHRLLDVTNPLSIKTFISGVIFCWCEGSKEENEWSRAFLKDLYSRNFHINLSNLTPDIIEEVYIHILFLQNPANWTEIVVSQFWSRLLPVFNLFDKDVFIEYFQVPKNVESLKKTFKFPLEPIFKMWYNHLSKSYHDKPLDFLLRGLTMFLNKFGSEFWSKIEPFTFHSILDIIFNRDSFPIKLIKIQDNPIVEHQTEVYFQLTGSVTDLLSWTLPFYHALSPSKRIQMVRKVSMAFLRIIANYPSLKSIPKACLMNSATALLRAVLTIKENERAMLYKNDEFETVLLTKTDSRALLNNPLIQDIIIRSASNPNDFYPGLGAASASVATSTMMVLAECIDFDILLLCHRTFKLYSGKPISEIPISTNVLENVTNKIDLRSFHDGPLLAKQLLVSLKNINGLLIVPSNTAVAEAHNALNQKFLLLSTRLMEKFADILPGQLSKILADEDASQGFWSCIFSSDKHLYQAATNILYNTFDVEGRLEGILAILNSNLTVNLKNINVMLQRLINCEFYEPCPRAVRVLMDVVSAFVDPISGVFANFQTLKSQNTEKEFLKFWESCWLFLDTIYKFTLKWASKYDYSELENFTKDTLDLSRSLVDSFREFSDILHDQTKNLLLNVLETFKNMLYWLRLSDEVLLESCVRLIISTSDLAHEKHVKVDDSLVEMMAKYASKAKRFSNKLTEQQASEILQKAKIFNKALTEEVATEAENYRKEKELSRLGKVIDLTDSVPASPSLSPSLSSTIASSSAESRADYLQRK
In words: affinity purification with mass spectrometry; TAP-tagged Sen1 versions (full length, ΔNTD, NTD) overexpressed from pGAL1 as baits; yeast lysates in 10 mM sodium phosphate pH 7.5, 200 mM sodium acetate, 0.25% NP-40, treated with RNase A; IgG Sepharose; elution by TEV cleavage; untagged control.

The target in assay [4] is TAP-Sen1 (full-length Sen1 fused to a tandem affinity purification tag, expressed from pGAL1) (S. cerevisiae) (UniProt Q00416). The description is as above.

In PMC9278858 one finds binding data, which are given here for two molecules.

No constants are given. Whether binding was seen depends on the method and setting. Binding seen in cells or lysates may run through a third protein. A yes stands for co-enrichment or nearness to the bait. Other partners may have been found. For some assays here: No binding means not detected with the bait. For some assays here: Sequences can lack the tags named with a protein.

B1: Ctf4 (protein, UniProt Q01454 1-927)
chain: MVSVIDKLVFDFGGKTLVSLAPDNNTLCVANKNGLTKILKTNNPEEEPETLDSSKLVSSIKCYSNSHFLMTTMQGDALRYNIDSSQEELLARFALPLRDCCVIHSGKMAVFGGDDLELILLELDDETHKKHAIKIDEQVSQISYNSQMNILAVSMINGKVQIFSLTSTIPNKVHELNDYIVANSYDDTHRDKILSNMMDDIDKDNDNDLSETADPDENNVADPEFCAANRICTRVAWHPKGLHFALPCADDTVKIFSIKGYSLQKTLSTNLSSTKAHFIDLQFDPLRGTYIAAVDLNNKLTVWNWETSEIHYTREFKRKITNIAWKIQADSKTLDLVLGTWSGSIAIVQNLAESVVSNIPDQSVAESSTKHGLFVDSESDLENLEGNDDINKSDKLFSDITQEANAEDVFTQTHDGPSGLSEKRKYNFEDEEDFIDDDDGAGYISGKKPHNEHSYSRVHKTHSFPISLANTGKFRYMPFSPAGTPFGFTDRRYLTMNEVGYVSTVKNSEQYSITVSFFDVGRFREYHFEDLFGYDLCFLNEKGTLFGQSKTGQIQYRPHDSIHSNWTKIIPLQAGERITSVAATPVRVIVGTSLGYFRSFNQFGVPFAVEKTSPIVALTAQNYRVFSVHYSQFHGLSYSLSELGTSSKRYYKRECPLPMSLPNINSDMKKDANLDYYNFNPMGIKSLFFSSYGDPCIFGSDNTLLLLSKWRSPEESKWLPILDSNMEIWKMSGGKETTDIHVWPLALAYDTLNCILVKGKHIWPEFPLPLPSEMEIRMPVFVKSKLLEENKAILNKKNEIGADTEAEEGEEDKEIQIPVSMAAEEEYLRSKVLSELLTDTLENDGEMYGNENEVLAALNGAYDKALLRLFASACSDQNVEKALSLAHELKQDRALTAAVKISERAELPSLVKKINNIREARYEQQLK
For the molecule B1, the binding entry in assay [1] is recorded as “binds”; in assay [2], “no binding”; in assay [3], “binds”; in assay [4], “binds”.

B2: Mrc1 (protein, UniProt P25588 1-1096)
chain: MDDALHALSSLTAKKRTTTYKKVAVPILDENDNTNGNGPNDIDNPPELTGNGFLFANATLNRVKNRLEGKKAPEQNHNNGKDRSENSLPTQLISNLYDGGEELEKSEVKDNSYSEKNVSSSFTQTQRIPVSIQQDKVFNVPIHSVNDGKPTQLIKEDGLVNETSQALKTPLTTGRPGATQRIDSSGATSQTQPIKSIEPQSQIITTSSNHSNALSPKIPIIPTELIGTSPLFQSIQNRGPDTQMDVPPQTAHDEDKTQAIGIPQATHQEQKTQIDTVAQTLQDEVPHTLKIREIQSELASEDSKREKARNVEYKKPQKPIPTKKFFSKESFLADFDDSSSNEDDDIKLENAHPKPVQNDDELHENKSVELNLTDETRINEKRVPLLSSYANNLKREIDSSKCITLDLDSDSDEYGDDDMDSIKLSKDESVLPISQLSKATILNLKARLSKQNQKLSQRPNKSKDPKVDHNVLLNTLRKASRKQILDHQKEVIETKGLKLEDMAKEKEIVENLLEQEILRNKRIRQKEKRREKLEENDFQLNAHDSGSDSGSESSGFALSGNEIADYESSGSENDNRRESDSEKEDDEIILKQKKSHHVKHIINESDSDTEVEAKPKEKADESLPKRIAINLGHYGDNIGEDTDKFQETNVLDTQNIEEVMAERNTIENEVKDDVYVNEEADEAIRRQLIDKEKLQLKQKEKEHEAKIKELKKRGVTNFFEMEAEESEDEWHGIGGADGEGSDDYDSDLEKMIDDYSKNNFNPHEIREMLAAENKEMDIKMINKILYDIKNGGFRNKRAKNSLELELSDDDEDDVLQQYRLKRRELMRKRRLEIGDDAKLVKNPKSSAFFESMVEDIIEYKNPFGAEEEYNLDITSTATDLDTQDNSINVGDNTGNNEQKPVDQKNKKVIISEDFVQKSLSFLKSNNYEDFETDKELSRIQHGNDEAIEDLYTLKQNSSIKSFTNSQTDSTTSKTVNTIIDLEKRPEDEDEVENGDTSLVGVFKHPSIIKSFASRTDINDKFKEGNKTVKILKSYKTVGSSKASITYMGKTRKLIAPKRKTEGSHRYHHDHHNKKMKMKTKTKSNKLFESGQDSFDN
Take B2: the binding entry in assay [1] is given as “binds”; in assay [2] it was “no binding”; in assay [3], “no binding”; in assay [4], “binds”.
